Experimental data as given in EP1363949B1, “FUNCTIONAL FRAGMENT OF THE LEPTINE RECEPTOR” (Vlaams Interuniversitair Instituut voor Biotechnologie vzw., priority 2000, dated 2007).
Part of at least one peptide drawing is inferred or uncertain, most often the ends. Non-standard residues stand in square brackets, D forms with d. Residues, ends and D or L forms follow the SMILES beside them. *: point of attachment. Biotin = O=C1N[C@H]2[C@H](CS[C@H]2CCCCC(=O)*)N1; pY = N[C@@H](Cc1ccc(OP(=O)(O)O)cc1)C(=O)O

System: FLAG-tagged SOCS3
Test: phosphopeptide affinity chromatography with anti-FLAG Western blot
Assay type: binding, rat
Settings: lysates of HEK293T cells transfected with pMET7-fSOCS3, biotinylated peptides on streptavidin-agarose
Source text: Monoclonal anti-FLAG antibody M2 was obtained from Sigma. Mouse recombinant leptin was purchased from R&D Systems. Peptides were synthesized using standard Fmoc-amino-acid solid phase chemistry on an Applied Biosystems Model 431A peptide synthesizer. Biotin was esterified manually following similar procedures as on the synthesizer, and added to the reaction mixture. Incorporation of phosphotyrosine was realized by using a protected Fmoc-tyrosine-phosphobenzylester (Novabiochem). After purification, mass of the peptides was confirmed by mass spectrometry. Sequences of the peptides used were biotin-QRQPSVK(p)Y985ATLVSNDK and biotin-NHREKSVC(p)Y1077LGVTSVNR.
Approximately 10^6 HEK293T cells were lysed in 150 µl 2x loading buffer. After sonication, 30 µl was loaded on a 10% polyacrylamide gel. […] Blotting efficiency was checked using PonceauS staining (Sigma). […] Peptide concentrations were determined by a colorimetric assay using alkaline hydrolysis and a ninhydrine reagent. […]
The interaction sites of SOCS3 with the leptin receptor were confirmed using a biochemical approach. FLAG-tagged SOCS3 was expressed upon transient transfection of pMET7-fSOCS3 in HEK293T cells, and was analyzed for binding to (phospho)-tyrosine containing peptides matching the two motifs within the leptin receptor. […]

CC(C)C[C@H](NC(=O)[C@H](Cc1ccc(OP(=O)(O)O)cc1)NC(=O)[C@H](CS)NC(=O)[C@@H](NC(=O)[C@H](CO)NC(=O)[C@H](CCCCN)NC(=O)[C@H](CCC(=O)O)NC(=O)[C@H](CCCNC(=N)N)NC(=O)[C@H](Cc1c[nH]cn1)NC(=O)[C@H](CC(N)=O)NC(=O)CCCC[C@@H]1SC[C@@H]2NC(=O)N[C@@H]21)C(C)C)C(=O)NCC(=O)N[C@H](C(=O)N[C@H](C(=O)N[C@@H](CO)C(=O)N[C@H](C(=O)N[C@@H](CC(N)=O)C(=O)N[C@@H](CCCNC(=N)N)C(=O)O)C(C)C)[C@@H](C)O)C(C)C [phosphorylated Y1077 peptide, biotin-NHREKSVC(p)Y1077LGVTSVNR]
binding of SOCS3: binds specifically to the phosphorylated Y1077 peptide but apparently with a much lower affinity

CC(C)C[C@H](NC(=O)[C@@H](NC(=O)[C@H](C)NC(=O)[C@H](Cc1ccc(OP(=O)(O)O)cc1)NC(=O)[C@H](CCCCN)NC(=O)[C@@H](NC(=O)[C@H](CO)NC(=O)[C@@H]1CCCN1C(=O)[C@H](CCC(N)=O)NC(=O)[C@H](CCCNC(=N)N)NC(=O)[C@H](CCC(N)=O)NC(=O)CCCC[C@@H]1SC[C@@H]2NC(=O)N[C@@H]21)C(C)C)[C@@H](C)O)C(=O)N[C@H](C(=O)N[C@@H](CO)C(=O)N[C@@H](CC(N)=O)C(=O)N[C@@H](CC(=O)O)C(=O)N[C@@H](CCCCN)C(=O)O)C(C)C [phosphorylated Y985 peptide, biotin-QRQPSVK(p)Y985ATLVSNDK] (Biotin-QRQPSVK[pY]ATLVSNDK-OH)
binding of SOCS3: clear and specific binding
